Data reported in PubChem BioAssay AID1347076 (National Center for Advancing Translational Sciences (NCATS), 2019).
Where “and” joins values, the source holds several entries; their conditions need not be identical. Equal values may be shown once. The campaign covered roughly 400,000 compounds. About 13,000 (3.2%) were called active. The inconclusive results got no clear call from the source; some entries with a clear call stand among them for comparison. Calls follow the shape of the dose curve; as a rule, active = well fitted cell-killing curve with a large enough effect; inconclusive = small, poorly fitted or top-dose-only effect, or effect the other way; inactive = flat fitted curve, though single readings scatter. A potency beside an inconclusive call is a rough fit, not a confirmed value.

Experiment: qHTS assay for MDR1-selective chemotherapeutics: Primary screen using the drug-selected MDR subline cells KB-V1; also: nearly all actives have a fitted effect of over 60% in size
Conditions: KB-V1 MDR cells viability, CellTiter-Glo, 72 h; activity change, negative = cytotoxicity: at 46.1 µM (top of the series)
Method in brief: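 Following 72 h at 37 degrees C with compound, KB-V1 cell viability was read by CellTiter-Glo luminescence, medium being phenol-red-free DMEM plus 10% FBS; concentration-response parameters came from normalized, curve-fitted qHTS data.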
% is scaled to controls: 0 for no effect and ±100 for the full control effect; potency is read from the fitted curve at half-maximal effect.

| SMILES | Potency | activity change, negative = cytotoxicity |
| --- | --- | --- |
| CN(C)S(=O)(=O)N1CCC(n2nccc2NC(=O)CCCc2ccccc2)CC1 | inactive | – |
| Cn1cnnc1SCC(=O)c1cccc([N+](=O)[O-])c1 | – | inconclusive: -30.6% |
| C=CCn1c(SCCC)nc2ccccc2c1=O | inconclusive: 0.58 µM [rising, full curve, poor fit] | – |
| O=[N+]([O-])c1cccc(CN2CCN(c3cccc4[nH]ccc34)CC2)c1 | inconclusive: 20.6 µM [cytotoxic, single point] | – |
| COc1ccc(Cl)cc1N(CC(=O)NC(C)(C)C)S(=O)(=O)c1ccc(C)c([N+](=O)[O-])c1 | inconclusive: 7.31 µM [cytotoxic, partial curve] | – |
| COc1ccccc1CNc1nc(-c2ccco2)nn1S(=O)(=O)c1ccc(Cl)cc1 | inactive | – |
| O=C(c1ccoc1)N1CCN(c2cc(-c3ccncc3)nc3cc(-c4cccc(Cl)c4)nn23)CC1 | inconclusive: 20.6 µM [cytotoxic, partial curve, poor fit] | – |
| COc1ccc(NC(=O)CSc2nc3ccccc3c3nc4ccccc4n23)cc1 | inconclusive: 0.517 µM [cytotoxic, full curve, poor fit] | – |
| CCn1cc(S(=O)(=O)NCCc2ccccc2OC)cn1 | inactive | – |
| Cc1ccc(S(=O)(=O)Nc2cc(Cl)c3oc4c(c3c2)C(=O)CC(C)(C)C4)cc1 | inconclusive: 18.4 µM [rising, single point] | – |
| Nc1nonc1-n1nnc(C(=O)N/N=C/c2cccc(Cl)c2)c1CN1CCCCCC1 | inconclusive: 9.2 µM [rising, partial curve, poor fit] | – |
| O=C(NC1CCCC1)c1cnn2c1NC(=C1CC1)C=C2C(F)F | inactive | – |
| CCOc1ccc(NC(=O)C2=C(C)NC(=S)NC2c2ccc(O)c(OC)c2)cc1 (stereo not drawn) | – | inconclusive: -20.7% |
| O=C(Nc1ccc(Oc2cccc(C(F)(F)F)c2)nc1)c1cccs1 | inactive | – |
| CCc1ccccc1NC(=O)c1cnn2c(C(F)(F)F)cc(-c3ccc(OC)c(OC)c3)nc12 | inconclusive: 1.16 µM [cytotoxic, full curve] | – |
| COCCNC(=O)C(=O)Nc1c2c(nn1-c1ccccc1)CS(=O)(=O)C2 | inactive | – |
| CC(=O)c1ccc(N2CCN(CC(O)COC(c3ccccc3)c3ccccc3)CC2)cc1 (stereo not drawn) | inactive | – |
| Cn1c(=O)c(=O)n(C)c2cc(N3CCCC3)c(NS(=O)(=O)c3ccc(Cl)cc3)cc21 | inactive | – |
| CC(=O)c1cccc(NC(=S)NC(=O)c2ccc(Cl)cc2)c1 | inconclusive: 29.1 µM [cytotoxic, single point] | – |
| Cc1ccc2cc(CCNC(=O)c3ccc(S(=O)(=O)N4CCOCC4)cc3)c(=O)[nH]c2c1 | inconclusive: 14.6 µM [rising, single point] | – |
| Cc1nnc2sc(-c3ccncc3)nn12 | inactive | – |
| Cc1ccc(C(=O)N(CCN(C)C)CC2CCCN(Cc3ccccc3F)C2)cc1C (stereo not drawn) | inconclusive: 3.66 µM [cytotoxic, partial curve] | – |

3 entries out of the list, arranged by SMILES length, descending.

| SMILES | Potency | activity change, negative = cytotoxicity |
| --- | --- | --- |
| COc1ccccc1CNc1nc(-c2ccco2)nn1S(=O)(=O)c1ccc(Cl)cc1 | inactive | – |
| CN(C)S(=O)(=O)N1CCC(n2nccc2NC(=O)CCCc2ccccc2)CC1 | inactive | – |
| Cn1cnnc1SCC(=O)c1cccc([N+](=O)[O-])c1 | – | inconclusive: -30.6% |

Remaining list, next part:

| SMILES | Potency | activity change, negative = cytotoxicity |
| --- | --- | --- |
| N#Cc1ccc2[nH]cc(C3c4cc(F)ccc4C=C(c4ccsc4)N3c3ccc(C#CCCO)cc3)c2c1 (stereo not drawn) | inconclusive: 29.1 µM [cytotoxic, single point] | – |
| CC(=O)c1cccc(-c2cnc3c(NC=O)cc(-c4ccc(N5CCN(C)CC5)cc4)cn23)c1 | inactive | – |
| CCC1CCC(C(=O)NC(C(=O)Nc2ccc3c(c2)OCCO3)C(C)C)CC1 (stereo not drawn) | inconclusive: 3.66 µM [cytotoxic, partial curve] | – |
| Cc1ccc(C(C)C)c(OCC(=O)Nc2ccc3c(c2)nc(CN2CCCC2)n3C)c1 | inactive | – |
| COC(=O)c1ccc(CNCC(O)COc2ccc(-c3ccccc3)cc2)cc1 (stereo not drawn) | inactive | – |
| O=C(NCCc1ccccc1)[C@@H]1CC=C[C@@H]2CCN(Cc3ccc(Cl)c(Cl)c3)C(=O)[C@@H]21 | active: 16.4 µM and inconclusive: 23.1 µM [cytotoxic, single point] | – |
| Cc1ccc(-n2c(=O)cc(N3CCc4ccccc4C3)[nH]c2=O)cc1 | inconclusive: 9.2 µM [cytotoxic, partial curve] | – |
| CC1(C(=O)NCc2cccc(Cl)c2)Cc2c(-c3ccc4c(c3)OCO4)ccnc2O1 (stereo not drawn) | inconclusive: 25.9 µM [cytotoxic, partial curve, poor fit] | – |
| C#CCOCCOCCOCCNc1nc(N2CCN(C(=O)C([C@@H](C)CC)n3cc(C(N)CC(C)C)nn3)CC2)nc(N2CCN(C(=O)[C@H](CCC(=O)O)n3cc(C(N)Cc4ccc(O)cc4)nn3)CC2)n1 (stereo partly drawn) | inconclusive: 20.6 µM [rising, single point] | – |
| CC(C)(C)OC(=O)N1CCC[C@H]1C(=O)O | inactive | – |
| CC1(C)Cc2nc3sc4c(=O)[nH]cnc4c3cc2CS1 | inactive | – |
| Cc1ccc2nc(C)c3c(c2c1)COC3 | inconclusive: 23.1 µM [cytotoxic, single point] | – |
| CCN1CCN(Cc2ccc(NC(=O)c3ccc(C)c(NC(=O)c4cncc(-c5cccs5)c4)c3)cc2C(F)(F)F)CC1 | inconclusive: 23.1 µM [cytotoxic, single point] | – |
| Cc1cccc(NC(=O)Cn2nc(N3CCN(c4ccccc4)CC3)ccc2=O)c1C | inactive | – |
| CC(C)(C)n1nnnc1C(c1ccccc1)N1CCN(C(=O)C2CCCO2)CC1 (stereo not drawn) | inactive | – |
| Cc1cccn2c(Nc3ccc4c(c3)OCCO4)c(-c3ccc(Br)o3)nc12 | inconclusive: 16.4 µM [cytotoxic, single point] | – |
| CCc1ccccc1NC(=O)COc1ccc2c(c1)OCO2 | inconclusive: 29.1 µM [cytotoxic, single point] | – |
| C[C@H](CO)N1C[C@H](C)[C@@H](CN(C)C(=O)Nc2ccc(C(F)(F)F)cc2)Oc2c(NC(=O)CCC(F)(F)F)cccc2C1=O | inactive | – |
| CCOC(=O)c1c(NC(=O)CN2CCC(C)CC2)sc(C)c1C | inconclusive: 18.4 µM [cytotoxic, single point] | – |
| COCCn1c(C)cc(C(=O)CSc2nc(C)c(C)c(C)n2)c1C | inconclusive: 13 µM [cytotoxic, partial curve] | – |
| CC(=O)C1=C(C)NC(=O)NC1/C=C/c1ccccc1 (stereo not drawn) | inconclusive: 2.91 µM [rising, partial curve, poor fit] | – |
